Measurements from US7423122B2, “N-terminal and C-terminal markers in nascent proteins” (priority 1999, dated 2008).
Some results were stated once for a whole list of compounds, not compound by compound.

System: E. coli T7 S30 transcription/translation extract
Format: biochemical

Substance | fluorescence of α-HL band relative to BODIPY-FL-SSE
6-((4,4-difluoro-1,3-dimethyl-5-(4-methoxyphenyl)-4-bora-3a,4a-diaza-s-indacene-2-propionyl) amino)hexanoic acid, succinimidyl ester [Bodipy-TMR-X, SE] | less than 3%
4,4-difluoro-5-phenyl-4-bora-3a,4a-diaza-s-indacene-3-propionic acid, succinimidyl ester [Bodipy-R6G] | less than 3%
